# Results from patent US10058598B2, “Peptides and combination of peptides for use in immunotherapy against various cancers” (immatics biotechnologies GmbH, priority 2015, dated 2018).
# For part of these data: Expression grades refer to the transcript from which the peptide derives; gene names, where given, were looked up from the sequence.
# Key:
# [1] = system: A*24-positive cancer samples, cell lines and normal tissue samples; test: Identification and label-free relative LC-MS quantitation of HLA-A*24 tumor associated peptides presented on tumor versus normal tissues (XPRESIDENT); parameters: species or system human; key: specifically presented on tumors (++++); very highly over-presented on tumors compared to a panel of normal tissues (+++); highly over-presented on tumors compared to a panel of normal tissues (++); over-presented on tumors compared to a panel of normal tissues (+); conditions: HLA-A*24 peptides
# [2] = system: source genes of the peptides (mRNA); test: Expression profiling of source genes by in-house RNAseq of tumor and normal tissue RNA (expression scores); parameters: species or system human; key: +++: very highly over-expressed in tumors compared to a panel of normal tissues; ++: highly over-expressed in tumors compared to a panel of normal tissues; +: over-expressed in tumors compared to a panel of normal tissues
substance,measurement,setting,value
178 (IFIEVFSHF; listed as Homo sapiens) [compound 178],Presentation score HCC,[1]; HCC = hepatocellular carcinoma (N = 15) vs panel of normal tissues (N = 70),++++
193 (RFHPTPLLL; listed as Homo sapiens) [compound 193],Presentation score RCC,[1]; RCC = renal cell carcinoma (N = 2) vs panel of normal tissues (N = 70),++++
282: peptide found in NUP93 (gene looked up) (KFVDSTFYL; listed as Homo sapiens) [compound 282],Expression score NSCLC,[2]; NSCLC = non-small cell lung cancer (N = 11) vs panel of normal tissues,+
same,Expression score OC,[2]; OC = ovarian cancer (N = 12) vs panel of normal tissues,++
same,Expression score OSCAR,"[2]; OSCAR = esophageal cancer, including cancer of the gastric-esophageal junction (N = 11) vs panel of normal tissues",+
292: peptide found in SLC35E1 (gene looked up) (GMMTAILGV; listed as Homo sapiens) [compound 292],Expression score GB,[2]; GB = glioblastoma (N = 24) vs panel of normal tissues,+++
